The list shows a part of the results. The main result of the screen is listed elsewhere. These columns were measured beside it and carry no call. Most of these compounds were active or inconclusive in the main read-out, so they are no random draw. The note in brackets gives the kind of curve behind each potency; many fits are weak.
Assay: qHTS Assay for Lipid Storage Modulators in Drosophila S3 Cells;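 as to cell number change: cells counted by Cell Tracker Red CMTPX staining in the red channel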
Conditions: BODIPY lipid droplet fluorescence, 18-24 h; for cell number change: measured here: cell count max response, cells fed with added oleic acid
Summary of the method: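 Drosophila S3 cells loaded with oleic acid (400 uM, as added) and compounds at several concentrations; lipid droplets imaged by 488-nm laser-scanning cytometry, 500–530 nm intensity and object ratio to cell channel. Percent activity normalized to 20 uM Triacsin C.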

[1] = measured here: lipid fluorescence (Fed channel) AC50, cells fed with added oleic acid
[2] = measured here: cell number channel AC50, cells fed with added oleic acid

Row | Structure (SMILES) | cell number change [%] | AC50 [1] | AC50 [2]
1 | O=C(c1ccccc1Cl)N(Cc1ccc(Br)cc1)N1C(=O)CCC1=O | -37.4 |  | 
2 | CCCCn1c(N)c(N(CCOC)C(=O)CCCc2nc3ccccc3s2)c(=O)[nH]c1=O |  | 0.103 µM [falling, full curve, poor fit] | 
3 | Cc1ccc(OCc2nnc(SCC(=O)Nc3nccs3)n2-c2ccccc2)cc1C | 39.8 | 0.731 µM [rising, single point] | 18.4 µM [rising, single point]
4 | COc1ccc(Br)cc1S(=O)(=O)N1CCOCC1 | -198 |  | 29.1 µM [falling, single point]
5 | COc1cccc(NC(=O)N2CCCC2C(=O)NCc2ccco2)c1 (stereo unspecified) | 24.4 |  | 1.46 µM [rising, full curve, poor fit]
6 | COC(=O)c1ccc(NCCc2csc(-c3ccc(C)cc3)n2)c([N+](=O)[O-])c1 | -89.3 | 29.1 µM [falling, single point] | 29.1 µM [falling, single point]
7 | Cc1ccc(S(=O)(=O)N2CCCC(C(=O)Nc3cccnc3)C2)cc1 (stereo unspecified) |  | 0.13 µM [falling, full curve, poor fit] | 0.164 µM [falling, full curve, poor fit]
8 | COc1ccccc1N1CCN(C(=O)c2cc3c(=O)n4ccccc4nc3s2)CC1 | 11.2 | 0.00461 µM [rising, full curve, poor fit] | 1.3 µM [rising, partial curve, poor fit]
9 | COc1ccc(C(=O)N(C)c2c(C)n(C)n(-c3ccccc3)c2=O)cc1OC | -57.5 |  | 16.4 µM [falling, single point]
10 | CC(C)C(=O)Nc1nc(-c2ccc3c(c2)CCN3C(=O)C2CC2)cs1 | -25.7 |  | 
11 | CCOc1ccc(-n2c(SCC(=O)Nc3ccc4c(c3)OCO4)nc3ccccc3c2=O)cc1 | 47.3 | 0.0651 µM [rising, full curve, poor fit] | 
12 | Cc1nnc(SCC(=O)N(C)Cc2ccccc2)[nH]c1=O | 20.2 | 0.00517 µM [falling, full curve, poor fit] | 7.31 µM [rising, partial curve, poor fit]
13 | Clc1ccc(OCCN2CCOCC2)cc1Cl | -71.2 |  | 29.1 µM [falling, single point]
14 | CCCCCCN1C=CC=C/C1=C\C=C(C#N)C#N | -8.42 |  | 
15 | O=C(NCc1ccccc1Cl)C1(S(=O)(=O)c2ccc(Cl)cc2)CC1 | -1.9 |  | 
16 | CCOC(=O)c1sc2nc3c(cc2c1N)COC(C(C)C)C3 (stereo unspecified) | 1.78 |  | 
17 | O=C(/C=C/c1ccc(Br)o1)OCc1ccccc1 | 14.7 | 29.1 µM [falling, single point] | 
18 | CCC(CC)NC(=O)CN1CCN(S(=O)(=O)c2ccc(Br)s2)CC1 | -8.23 | 6.51 µM [falling, single point] | 

2 entries picked at random from the list so far:
Row | Structure (SMILES) | cell number change [%] | AC50 [1] | AC50 [2]
3 | Cc1ccc(OCc2nnc(SCC(=O)Nc3nccs3)n2-c2ccccc2)cc1C | 39.8 | 0.731 µM [rising, single point] | 18.4 µM [rising, single point]
15 | O=C(NCc1ccccc1Cl)C1(S(=O)(=O)c2ccc(Cl)cc2)CC1 | -1.9 |  | 

(continued)

Row | Structure (SMILES) | cell number change [%] | AC50 [1] | AC50 [2]
19 | CCN1CCN(C(=O)C(=O)c2cn(CC(=O)N3CCCCCC3)c3ccccc23)CC1 |  | 18.4 µM [falling, single point] | 
20 | O=C(c1cc(-c2ccc(Cl)s2)nc2ccccc12)N1CCOCC1 | 27.9 | 25.9 µM [rising, single point] | 
21 | CCCc1cc(C(=O)Nc2ccc(OC)cc2[N+](=O)[O-])cs1 | -17.1 | 29.1 µM [falling, single point] | 
22 | Cc1noc(C)c1CSc1nc2ccccc2s1 |  | 6.51 µM [falling, single point] | 0.082 µM [falling, full curve, poor fit]
23 | COc1cccc(N=Nc2c(N)[nH][nH]c2=O)c1 | 21.5 | 1.84 µM [falling, single point] | 
24 | Cc1ccc(NC(=O)Nc2nnc(Cc3ccc(F)cc3)s2)cc1 | -35.1 | 23.1 µM [falling, single point] | 16.4 µM [falling, single point]
25 | Cc1c(OC(C)C(=O)NCc2ccccn2)ccc2c3c(c(=O)oc12)CCC3 (stereo unspecified) |  | 9.2 µM [falling, partial curve] | 
26 | Cc1ccc2c(C)nc(N/C(N)=N/S(=O)(=O)c3ccc([N+](=O)[O-])cc3)nc2c1 | -8.26 | 0.206 µM [falling, full curve, poor fit] | 2.31 µM [falling, single point]
27 | CCCn1c(C2CCCN2c2nc(-c3cccc(Br)c3)cs2)nc2ccccc21 (stereo unspecified) | 19.1 | 29.1 µM [rising, single point] | 
28 | CCOC(=O)N1CCN(C(=O)c2ccccc2NC(=O)COc2ccccc2C)CC1 | -20.8 | 6.51 µM [rising, single point] | 
29 | O=C(Cn1cccc1)Nc1ccc(OC(F)(F)F)cc1 | -31.4 |  | 5.8 µM [falling, full curve, poor fit]
30 | CCN(CC(=O)NC(C)C)Cc1nc2c(Br)cc(Br)cc2c(=O)[nH]1 | 25.4 | 0.092 µM [rising, partial curve, poor fit] | 0.411 µM [rising, full curve, poor fit]
31 | O=S(=O)(NCC(c1ccc2c(c1)OCO2)N1CCOCC1)c1ccc(F)cc1 (stereo unspecified) |  | 14.6 µM [falling, single point] | 
32 | OC(c1cc(C(F)(F)F)nc2c(C(F)(F)F)cccc12)C1CCCCN1 (stereo unspecified) | -70.9 | 29.1 µM [falling, single point] | 16.4 µM [falling, partial curve]
33 | Cc1nc2sccn2c1-c1nc(-c2cc3ccccc3o2)cs1 | 45.8 | 16.4 µM [rising, partial curve] | 5.17 µM [rising, partial curve]
34 | O=C(O)CC12CC3CC(C1)CC(n1ncc(NCc4ccccc4)c(Cl)c1=O)(C3)C2 | 9.39 |  | 
35 | CCN1CCN(C(=O)c2ccc3nc(-c4ccccc4)c(-c4ccccc4)nc3c2)CC1 | 14.6 | 6.51 µM [rising, partial curve, poor fit] | 
36 | Cc1cc(NC(=O)CCCN2C(=O)/C(=C/c3ccccc3Cl)SC2=S)no1 | -10.3 | 1.46 µM [falling, partial curve, poor fit] | 
